Assay results published in PubChem BioAssay (Tox21).
Where “and” joins values, the source holds several entries; their conditions need not be identical. Identical values can stand only once. Inconclusive results, whose numbers are uncertain, are shown with a selection of clear calls. For some of these results: Where the call is inconclusive, the potency comes from a doubtful curve fit. Calls of active or inactive are those of the source. Unless noted, calls come from the whole dose curve.

The chains behind the UniProt entries cited, without tags or fusion partners.
UniProt P14416, whole entry, looked up: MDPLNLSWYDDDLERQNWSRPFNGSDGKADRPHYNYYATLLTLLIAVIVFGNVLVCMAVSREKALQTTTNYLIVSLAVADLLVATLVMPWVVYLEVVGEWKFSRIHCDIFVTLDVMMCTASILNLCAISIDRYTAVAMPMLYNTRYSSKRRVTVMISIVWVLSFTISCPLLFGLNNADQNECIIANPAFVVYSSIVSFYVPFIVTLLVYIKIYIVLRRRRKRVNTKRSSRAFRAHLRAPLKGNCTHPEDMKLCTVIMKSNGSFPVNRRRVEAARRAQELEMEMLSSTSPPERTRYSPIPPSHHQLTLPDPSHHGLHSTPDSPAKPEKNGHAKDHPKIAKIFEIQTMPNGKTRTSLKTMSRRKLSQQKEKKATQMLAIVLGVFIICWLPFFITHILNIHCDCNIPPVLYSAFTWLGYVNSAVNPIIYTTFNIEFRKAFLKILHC
UniProt P28223, whole entry, looked up: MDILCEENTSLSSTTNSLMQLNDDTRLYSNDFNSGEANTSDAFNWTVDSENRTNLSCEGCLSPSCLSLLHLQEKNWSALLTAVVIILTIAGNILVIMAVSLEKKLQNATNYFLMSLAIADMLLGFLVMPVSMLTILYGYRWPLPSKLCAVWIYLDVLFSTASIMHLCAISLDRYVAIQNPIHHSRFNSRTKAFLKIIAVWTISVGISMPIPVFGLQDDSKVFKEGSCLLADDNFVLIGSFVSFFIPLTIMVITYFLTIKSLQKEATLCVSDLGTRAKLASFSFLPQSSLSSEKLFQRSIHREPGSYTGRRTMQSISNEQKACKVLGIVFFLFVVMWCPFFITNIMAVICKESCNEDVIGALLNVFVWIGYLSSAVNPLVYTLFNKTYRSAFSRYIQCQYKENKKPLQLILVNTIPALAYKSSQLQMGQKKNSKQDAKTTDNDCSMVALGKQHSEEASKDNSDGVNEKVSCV

Columns and labels:
[1] = p53 small molecule agonists, cell-based qHTS assay: qHTS cell viability counter screen (AID 1963581); details: p53RE-bla HCT-116 viability, ATP luminescence, 16 h; series mostly up to 66 µM; note: nearly all actives have a fitted effect of over 45% in size; note: potency is the fitted concentration of half-maximal effect
Procedure, shortened: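 Viability was counter-screened in parallel with the p53 agonist reporter by measuring intracellular ATP luminescence in the same HCT-116 p53RE-bla wells after 16 h compound treatment at 37 C.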

[2] = p53 small molecule agonists, cell-based qHTS assay (AID 1963582; active = well fitted activation curve with a large enough effect in the signal ratio in the repeat runs, not every such curve was filed as active; inconclusive = weak or mixed curves; the % refers to the signal ratio; note: potency is the fitted concentration of half-maximal effect); details: HCT-116 p53RE-bla reporter, beta-lactamase FRET ratio, 16 h; activation: at 66 µM (top of the series) unless noted
Procedure, shortened: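 Cells carrying a p53-responsive bla reporter are treated with test compounds for 16 h at 37 C; beta-lactamase activity is then detected with LiveBLAzer B/G FRET substrate after 2 h at room temperature.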

[3] = cAMP Responsive Elements (CRE) small molecule agonists, cell-based qHTS assay (AID 1963590); details: CRE-bla HEK293T, beta-lactamase FRET ratio, 3 h; activation: at 92.4 µM (top of the series) unless noted; note: potency is the fitted concentration of half-maximal effect; for activation: % is set by controls: 0 for no effect and ±100 for the full control effect
Procedure, shortened: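 Cells carrying a CRE-driven beta-lactamase reporter (HEK 293T) are seeded, incubated overnight (18 h), and treated with test compounds for 3 h at 37 C; reporter activity is then detected with a FRET substrate after 2 h at room temperature.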

[4] = cAMP Responsive Elements (CRE) small molecule antagonists, cell-based qHTS assay (AID 1963591; active = well fitted inhibition curve with a large enough effect in the signal ratio in the repeat runs, not every such curve was filed as active; inconclusive = weak or mixed curves, or effect the other way; the % refers to the signal ratio; note: potency is the fitted concentration of half-maximal effect; for activity change, negative = inhibition: % is set by controls: 0 for no effect and ±100 for the full control effect); details: CRE-bla HEK293T, beta-lactamase FRET ratio
Procedure, shortened: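 Cells (CRE-bla HEK 293T, DMEM with 10% dialyzed FBS and 25 mM HEPES) are seeded and incubated 18 h. Compounds are added with NKH477 agonist at 0.25 uM final for 3 h, then FRET substrate for 2 h.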

[5] = molecular target: Beta-2 adrenergic receptor (Homo sapiens) (UniProt P07550); assay: Adrenergic beta2 receptor (ADRB2) small molecule agonists, cell-based qHTS assay (AID 1963593); details: CHO-ADRB2 cells, cAMP HTRF, 30 min; activation: at 92.4 µM (top of the series) unless noted; note: potency is the fitted concentration of half-maximal effect;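 for activation: CHO cells stably overexpressing human ADRB2; % is set by controls: 0 for no effect and ±100 for the full control effect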
Procedure, shortened: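 CHO cells stably over-expressing ADRB2 were plated overnight at 37C, then dosed with compounds plus a stimulation mix containing 100uM IBMX and 25uM Ro-20-1724 for 0.5hr at room temperature. cAMP was measured by HTRF competition, 1hr.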

[6] = molecular target: D(2) dopamine receptor (Homo sapiens) (UniProt P14416); assay: Dopamine D2 receptor (DRD2) small molecule antagonists, cell-based qHTS assay (AID 1963595; active = well fitted inhibition curve with a large enough effect in the signal ratio in the repeat runs, with a control signal flat; inconclusive = weak or mixed curves, or effect the other way; the % refers to the signal ratio; note: % is set by controls: 0 for no effect and ±100 for the full control effect); details: HEK293-DRD2 cAMP HTRF antagonist mode; activity change, negative = inhibition: at 92.4 µM (top of the series) unless noted
Procedure, shortened: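 HTRF cAMP read-out at 665 and 620 nm emission (340 nm excitation). Antagonist mode: compounds were tested against 12 nM quinpirole in DRD2-HEK293 cells, with 200 nM NKH477 raising cAMP and 0.1 mM Ro20-1724 blocking its breakdown.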

[7] = molecular target: 5-hydroxytryptamine receptor 2A (Homo sapiens) (UniProt P28223); assay: 5-hydroxytryptamine receptor 2A (HTR2A) small molecule antagonists, cell-based qHTS assay (AID 1963586); details: HTR2A-CHO cells, DOI-induced calcium flux, fluorescence; series mostly up to 61.5 µM; note: potency is the fitted concentration of half-maximal effect; nearly all actives have a fitted effect of over 45% in size
Procedure, shortened: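 CHO cells stably expressing human HTR2A were plated for 18 h at 37 C, then loaded with calcium dye for 1 h. Compounds were preincubated 5 min at room temperature before DOI (4 nM solution) was added. Kinetic fluorescence was read for 3 min.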

[8] = molecular target: Beta-2 adrenergic receptor (Homo sapiens) (UniProt P07550); assay: Adrenergic beta2 receptor (ADRB2) small molecule antagonists, cell-based qHTS assay (AID 1963592); details: CHO-ADRB2 cells, isoproterenol-stimulated cAMP HTRF ratio, 0.5 h; activity change, negative = inhibition: at 92.4 µM (top of the series) unless noted; note: potency is the fitted concentration of half-maximal effect; nearly all actives have a fitted effect of over 50% in size
Procedure, shortened: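 Assay format: CHO-ADRB2 cells, 18-20hr seeding at 37C/5% CO2, then compound plus 1nM isoproterenol agonist mix for 0.5hr RT. Homogeneous time-resolved fluorescence cAMP detection after 1hr, expressed as 665/615 nm ratio.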

SMILES	Potency [1]	Potency [2]	Potency [3]	activation [3]	Potency ([4]; activity change, negative = inhibition: at 92.4 µM (top of the series) unless noted)	activity change, negative = inhibition ([4]; at 42.4 µM (top of the series))	activity change, negative = inhibition ([4]; at 92.4 µM (top of the series))	Potency [5]	activity change, negative = inhibition [6]	Potency [7]	activation [5]	Potency [8]
C#C[C@]1(O)CC[C@H]2[C@@H]3CCc4cc(O)ccc4[C@H]3CC[C@@]21C	inconclusive: 5.72 µM [rising, full curve] and inconclusive: 16.2 µM [rising, full curve]	active: 16.1 µM and inconclusive: 9.13 µM [activator, full curve, poor fit] and inconclusive: 8.9 µM [activator, full curve, poor fit]	inconclusive: 30.4 µM [activator, partial curve] and inconclusive: 34.4 µM [activator, partial curve, poor fit]	inconclusive: 14.7% [at 42.5 µM]	inconclusive: 68.1 µM [inhibitor, single point]	inconclusive: -24.7%	inconclusive: -26.8%	inconclusive: 68.1 µM [inhibitor] and inconclusive: 68.6 µM [inhibitor, single point] and inactive	inconclusive: -8.01% [at 42.5 µM]			
CCCCC(CC)COC(=O)c1ccc(N(C)C)cc1 (centres undefined)	inconclusive: 5.16 µM [cytotoxic, single point]	inconclusive: 46 µM [rising, single point]	inactive							inconclusive: 20.5 µM [inhibitor, single point]	inconclusive: 2.24%	
CN(C)C(=O)C(CCN1CCC(O)(c2ccc(Cl)cc2)CC1)(c1ccccc1)c1ccccc1	inactive	inactive	inconclusive: 23.7 µM [rising, partial curve]					inconclusive: 13.3 µM [inhibitor, partial curve]				active: 11.9 µM
